Measurements: patent US20120220029A1
No constants are given. Whether binding was seen depends on the method and setting. Some entries that bind do so weakly or less than the wild type.

Protein sequences, listed by entry. Tags and fused reporters are not part of them. Lines headed by an entry give the natural chain unless they say otherwise; changes in a name come on top. Residues count along the entry.
UniProt P20263, residues 126-289: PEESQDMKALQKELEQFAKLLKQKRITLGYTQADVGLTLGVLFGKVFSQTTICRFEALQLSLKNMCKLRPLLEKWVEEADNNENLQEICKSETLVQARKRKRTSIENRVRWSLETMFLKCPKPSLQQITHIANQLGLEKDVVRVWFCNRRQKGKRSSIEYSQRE
UniProt P40646: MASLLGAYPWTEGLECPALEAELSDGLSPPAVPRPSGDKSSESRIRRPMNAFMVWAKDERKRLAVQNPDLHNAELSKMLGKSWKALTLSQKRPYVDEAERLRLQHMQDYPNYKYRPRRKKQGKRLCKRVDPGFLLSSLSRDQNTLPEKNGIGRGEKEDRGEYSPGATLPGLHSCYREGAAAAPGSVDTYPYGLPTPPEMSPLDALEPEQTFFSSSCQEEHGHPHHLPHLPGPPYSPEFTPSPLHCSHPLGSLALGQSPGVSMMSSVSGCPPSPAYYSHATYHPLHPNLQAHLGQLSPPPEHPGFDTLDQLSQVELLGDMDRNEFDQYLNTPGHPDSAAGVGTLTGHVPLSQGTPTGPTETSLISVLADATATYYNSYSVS
UniProt Q61473: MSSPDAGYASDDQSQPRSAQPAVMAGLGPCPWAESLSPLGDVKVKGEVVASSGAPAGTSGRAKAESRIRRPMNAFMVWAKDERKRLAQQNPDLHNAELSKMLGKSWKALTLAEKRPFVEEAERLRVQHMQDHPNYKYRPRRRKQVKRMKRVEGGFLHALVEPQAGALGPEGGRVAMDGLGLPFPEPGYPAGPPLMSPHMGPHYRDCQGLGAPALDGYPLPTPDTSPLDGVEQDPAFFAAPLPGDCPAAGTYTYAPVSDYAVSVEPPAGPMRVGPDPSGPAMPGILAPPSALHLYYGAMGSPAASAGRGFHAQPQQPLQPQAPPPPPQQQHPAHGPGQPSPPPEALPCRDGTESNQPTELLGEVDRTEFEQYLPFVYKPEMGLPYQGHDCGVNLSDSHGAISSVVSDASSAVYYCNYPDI

Tests used:
[1] = target: Oct4POU (POU domain of mouse Oct4, residues 126-289 of the full length protein) (mouse) (UniProt P20263); assay: EMSA, compressed sox/oct element (FIG. 1)
[2] = target: Oct4POU (POU domain of mouse Oct4, residues 126-289 of the full length protein) (mouse) (UniProt P20263); assay: EMSA, canonical elements (four spacer nucleotides) and compressed element; 50 nM Sox7HMG, 250 nM Oct4POU
[3] = target: Oct4POU (POU domain of mouse Oct4, residues 126-289 of the full length protein) (mouse) (UniProt P20263); assay: EMSA, ternary complex, compressed sox/oct element (-1 bp)
[4] = target: Oct4POU (POU domain of mouse Oct4, residues 126-289 of the full length protein) (mouse) (UniProt P20263); assay: EMSA competition, compressed element, Sox2HMG1 as competitor
[5] = target: Oct4POU (POU domain of mouse Oct4, residues 126-289 of the full length protein) (mouse) (UniProt P20263); assay: in vitro heterodimerization assay (EMSA), compressed sox/oct DNA element
[6] = target: Oct4POU (POU domain of mouse Oct4, residues 126-289 of the full length protein) (mouse) (UniProt P20263); assay: EMSA, canonical sox/oct element; 50 nM Sox17, 250 nM Oct4POU, 250 nM DNA
[7] = target: Oct4POU (POU domain of mouse Oct4, residues 126-289 of the full length protein) (mouse) (UniProt P20263); assay: EMSA alone and with Oct4, canonical and compressed Nanog-derived elements (FIG. 10C)
[8] = target: Oct4POU (POU domain of mouse Oct4, residues 126-289 of the full length protein) (mouse) (UniProt P20263); assay: EMSA with ordered addition of proteins, compressed element; 50 nM Sox17, 250 nM Oct4POU, 250 nM DNA
[9] = target: Oct4POU (POU domain of mouse Oct4, residues 126-289 of the full length protein) (mouse) (UniProt P20263); assay: EMSA, ternary complex, panel of sox/oct motif configurations; 50 nM Sox17HMG, 250 nM Oct4POU, 250 nM DNA
[10] = target: Oct4POU (POU domain of mouse Oct4, residues 126-289 of the full length protein) (mouse) (UniProt P20263); assay: EMSA, canonical elements (four spacer nucleotides) and compressed element; 50 nM Sox17HMG, 250 nM Oct4POU

Measured: binding

Sox7HMG (HMG domain of mouse Sox7) (from UniProt P40646 43-121)
binds: [1] | [2]

Sox17HMG (HMG domain of mouse Sox17) (from UniProt Q61473 66-144)
not listed: [2]
binds: all other assays above
